Patent US9259006B2, “Antimicrobial compositions and methods of use thereof” (priority 2008, dated 2016)

Test: HPLC analysis of residual amounts of components on treated produce (Table 9)
Details: after treatment per Table 8, flow through wash with 1 liter distilled water for 60 seconds

Compound | Residual amounts of component (Iceberg Lettuce) | Residual amounts of component (Spinach leaf) | Residual amounts of component (Spring Mix)
OCl [Hypochlorous Acid “CL2”] | 0.001 ppm | 0.001 ppm | 0.002 ppm
CC(O)CO (stereo not drawn) [Propylene Glycol] | 18 ppm | 25 ppm | 13 ppm
OO [Hydrogen Peroxide] | 0 ppm | 0 ppm | 0 ppm
O=P(O)(O)O [Phosphoric Acid] | 5 ppm | 8 ppm | 9 ppm
